Measurements reported in patent US20230151106A1, “OFATUMUMAB FOR TREATING MS WHILE MAINTAINING SERUM IgG” (NOVARTIS AG, priority 2020, published 2023).
Like-named read-outs stand apart in the source and are kept apart here. For at least one compound, name, drawing or mass did not settle the structure.

Legend:
MS patients = conditions: cited from earlier work
CD19+ B-cells = assay: CD19+ B-cell depletion in ASCLEPIOS; format: in vivo, human; conditions: all the time points up to Week 120

C/C(O)=C(\C#N)C(=O)Nc1ccc(C(F)(F)F)cc1 [teriflunomide]
annualized relapse rate (ARR) (MS patients; ASCLEPIOS I): 0.22 | annualized relapse rate (ARR) (MS patients; ASCLEPIOS II): 0.25 | median CD19+ B-cells count (CD19+ B-cells): above LLN
